Measurements from the supplement of paper PMC3334620.
Over roughly 33,000 sequences, “E-score (-0.5 to 0.5)” has its median near -0.0059; the highest 2% begin near 0.26. The list shows a part of the results.

Each sequence was assayed against T1, Cin5 (UniProt P40917) (assay: PBM E-score (8-mer binding enrichment) (E-score (-0.5 to 0.5)); higher = stronger / more preferred TF binding). Details: protein concentration: 100 nM; construct: GST-full length.
T1 sequence: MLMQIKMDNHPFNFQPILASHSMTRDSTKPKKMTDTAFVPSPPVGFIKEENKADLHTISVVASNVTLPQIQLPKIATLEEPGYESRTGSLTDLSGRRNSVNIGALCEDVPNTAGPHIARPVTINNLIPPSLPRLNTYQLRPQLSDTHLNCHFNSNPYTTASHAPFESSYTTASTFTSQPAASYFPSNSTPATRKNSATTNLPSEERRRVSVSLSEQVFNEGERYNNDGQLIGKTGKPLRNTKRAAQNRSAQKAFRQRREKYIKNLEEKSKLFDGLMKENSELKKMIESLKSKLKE
Protocol: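 Universal 'all 10-mer' protein binding microarrays (Agilent AMADID 015681) probed with GST-tagged S. cerevisiae TFs (full-length or DBD) made by in vitro transcription/translation (PURExpress), about 100-200 nM. Bound TF was detected with fluorescent anti-GST. Each ungapped 8-mer (which stands for itself and its reverse complement) is scored by the PBM enrichment score (E-score), a modified Wilcoxon-Mann-Whitney statistic from -0.5 to +0.5, computed with the Universal PBM Analysis Suite. Scale: above 0.35 generally sequence-specific binding.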

Sequence	PBM E-score
AGCCTCAT	-0.0203
ATCTCATC	0.16
AAACTCTC	0.0339
CGAACCCA	-0.132
CATGGTTA	0.113
ATGCCTGA	-0.0468
ATTAGCCC	-0.0857
CTCCCAAG	-0.187
GTCCTTCA	0.0161
CATCCGTC	0.12
CGACAATA	0.209
AGATTGCC	-0.0969
GTGATACA	0.0757
TCGCATAA	0.198
CCCCAGCG	-0.216
CACTCGGG	-0.117
TACCCCAA	0.208
AAACCCTG	-0.0435
AGGTGCTG	-0.0524
AAAATTAG	0.226
AACGAGAC	-0.0573
CATACAAA	0.187
AATACAGT	0.153
CTCACGTA	0.0249
ACATACAA	0.138

For reference, some entries already given:
Sequence	PBM E-score
AAACCCTG	-0.0435
AGGTGCTG	-0.0524
AAAATTAG	0.226
AACGAGAC	-0.0573

The list goes on.

Sequence	PBM E-score
GACCTGCA	-0.146
AAGTTTAA	-0.216
CGAACGTC	-0.16
AAAGGGTT	-0.231
GGAAGCAA	-0.0854
GACACGGC	-0.0828
ATCATTTA	0.226
CATAAGGC	0.0908
ATTGCGCG	0.148
GAATGCCC	-0.0134
ATGTGGAG	-0.0409
CCAGATTC	-0.157
CACGCCCG	-0.133
TCGCAGCA	-0.0458
GAAACATC	-0.116
AAAGATAT	0.3
ACCTAATC	0.311
AGTAGAGG	-0.263
AGTTACGC	-0.0841
GCCACGAC	0.111
TAACTGTA	0.0391
CTGACCAG	-0.157
ATAGACGG	0.0602
AGCGAGAG	0.0419
CTACATCA	0.156

Sequence	PBM E-score
GAAAGGAA	0.0394
AGGTGATG	0.0198
TAGTATCA	0.296
GCACTGTA	0.0748
ATTGGAAC	0.00929
AATGACCT	-0.106
CCATGGAA	0.0514
GTGTGGAA	0.0155
CTCTGTTA	-0.0159
AACAGCCA	0.0811
CTCTAATA	-0.057
ACCTCGTG	-0.0248
ACTTCGCC	0.0471
ATGTCGTC	-0.00466
GGGCCTAA	-0.267
CGAGTTCA	-0.0225
AAGGATAC	-0.0927
CCACGATA	0.125
CCTTTACA	-0.136
ACGACCGG	-0.159
AAACTGAA	0.0155
AAGGGTTC	-0.121
ACTTATTG	0.137
ATTATGTG	0.345
AGCCGCAT	0.0301

Reprinted at random: seven entries already listed, in no set order.
Sequence	PBM E-score
ACTTCGCC	0.0471
AAGGGTTC	-0.121
CCATGGAA	0.0514
ATTATGTG	0.345
ATGTCGTC	-0.00466
AAACTGAA	0.0155
GCACTGTA	0.0748

(list continues)

Sequence	PBM E-score
ACATACTA	0.155
CTCTAGAC	-0.268
ATGAAAAG	0.0788
AACGCTTC	-0.0204
AACCACCA	0.0848
CTAAAGAA	-0.0282
ACCGCGGG	0.105
CATCTCGG	0.0594
ATATGACG	0.0848
ACCACAGA	0.0397
AAATCGTC	0.0262
AGAGCCAG	-0.143
CACCATTA	0.0751
ACTGCTTA	0.209
ATTGCACC	0.108
CCTTGATA	0.0439
ATATTAAT	0.362
GGCGCTTA	0.0541
ATCTAGCA	0.105
ACGACAAC	0.166
ATGTGAAC	0.117
AGCGCTTA	0.157
TAAATTAA	0.122
AAAGTAGG	0.0693
AGAGGCTG	-0.342

Sequence	PBM E-score
ACATGTAA	0.168
GCCTTGGA	-0.109
AACTCTCT	0.0206
GTTGACTA	0.00144
ACTGCCCG	-0.0979
TAGGCCCA	-0.25
CTCAAACA	0.0626
ATATCTGC	0.0204
ACGTCCCT	-0.0882
ACGATAAA	-0.115
AACAGGTG	-0.0901
CCAAATCG	-0.0283
CCTCAGAC	-0.146
GGGGTACA	-0.125
ACAATACC	0.278
ATGTTGAG	-0.0071
AACTTTGG	-0.0672
ACCACATC	0.228
GCAATTCC	-0.043
AGCAGTAC	0.037
ACCACGTC	-0.0185
CTCTCGTA	0.0396
GCACCCCC	-0.343
ACCGTGAT	-0.098
ACCGGGTG	0.00507

Sequence	PBM E-score
ACCTGACG	-0.065
TGGTCACA	-0.0718
GGGGAACC	-0.229
AGCAACCT	-0.0721
CTGACCAA	0.12
CTGCCTCA	-0.137
GATTAGCA	0.191
TCGCAACA	0.108
ATTGACCA	0.133
CGCTAATA	0.0507
GTTAAACA	0.0897
AGCCCCGC	-0.0133
AAGTGGCA	0.0598
GATGCCCC	-0.246
AAACAAGT	0.108
CTGGGGCC	-0.254
GCAATGGA	0.062
ACTACCGG	-0.16
GACACTAC	0.0741
CTAGAATA	0.146
ATACTCGC	0.247
GATCACGA	0.137
CCCTACGG	-0.172
CGCGTAGC	-0.0721
GGCGTAGA	-0.0537

Sequence	PBM E-score
CGAGCTCG	0.0762
CTAACACC	-0.0334
AATTCGCA	0.198
GGGCTCAA	-0.26
CAGAGGTA	-0.00695
GGATCCAC	-0.0492
GATGCCGC	-0.151
GTCTTCAA	-0.0931
ACTAGCGA	-0.149
AAACGGCA	0.126
ATACATCA	0.212
CCGCGGAG	0.0845
CAGACATA	0.0163
CCTTCAGC	-0.133
AGTCTAGA	-0.219
TCCAAGGA	-0.133
GATCAGGC	-0.146
ATTGAGTG	0.0972
TACTCCAA	0.0407
AACGAAGG	-0.202
TCTTCGCA	0.121
CTTCAGTC	-0.0807
